Publication PMC7809020
No constants are given. Whether binding was seen depends on the method and setting. Binding seen in cells or lysates may run through a third protein. Some binding calls cover weakened binding; strength is not graded here.

The chains behind the UniProt entries cited, without tags or fusion partners. Where a name states a change or a piece, a line headed by the entry shows the natural chain unless it says otherwise.
UniProt Q13315: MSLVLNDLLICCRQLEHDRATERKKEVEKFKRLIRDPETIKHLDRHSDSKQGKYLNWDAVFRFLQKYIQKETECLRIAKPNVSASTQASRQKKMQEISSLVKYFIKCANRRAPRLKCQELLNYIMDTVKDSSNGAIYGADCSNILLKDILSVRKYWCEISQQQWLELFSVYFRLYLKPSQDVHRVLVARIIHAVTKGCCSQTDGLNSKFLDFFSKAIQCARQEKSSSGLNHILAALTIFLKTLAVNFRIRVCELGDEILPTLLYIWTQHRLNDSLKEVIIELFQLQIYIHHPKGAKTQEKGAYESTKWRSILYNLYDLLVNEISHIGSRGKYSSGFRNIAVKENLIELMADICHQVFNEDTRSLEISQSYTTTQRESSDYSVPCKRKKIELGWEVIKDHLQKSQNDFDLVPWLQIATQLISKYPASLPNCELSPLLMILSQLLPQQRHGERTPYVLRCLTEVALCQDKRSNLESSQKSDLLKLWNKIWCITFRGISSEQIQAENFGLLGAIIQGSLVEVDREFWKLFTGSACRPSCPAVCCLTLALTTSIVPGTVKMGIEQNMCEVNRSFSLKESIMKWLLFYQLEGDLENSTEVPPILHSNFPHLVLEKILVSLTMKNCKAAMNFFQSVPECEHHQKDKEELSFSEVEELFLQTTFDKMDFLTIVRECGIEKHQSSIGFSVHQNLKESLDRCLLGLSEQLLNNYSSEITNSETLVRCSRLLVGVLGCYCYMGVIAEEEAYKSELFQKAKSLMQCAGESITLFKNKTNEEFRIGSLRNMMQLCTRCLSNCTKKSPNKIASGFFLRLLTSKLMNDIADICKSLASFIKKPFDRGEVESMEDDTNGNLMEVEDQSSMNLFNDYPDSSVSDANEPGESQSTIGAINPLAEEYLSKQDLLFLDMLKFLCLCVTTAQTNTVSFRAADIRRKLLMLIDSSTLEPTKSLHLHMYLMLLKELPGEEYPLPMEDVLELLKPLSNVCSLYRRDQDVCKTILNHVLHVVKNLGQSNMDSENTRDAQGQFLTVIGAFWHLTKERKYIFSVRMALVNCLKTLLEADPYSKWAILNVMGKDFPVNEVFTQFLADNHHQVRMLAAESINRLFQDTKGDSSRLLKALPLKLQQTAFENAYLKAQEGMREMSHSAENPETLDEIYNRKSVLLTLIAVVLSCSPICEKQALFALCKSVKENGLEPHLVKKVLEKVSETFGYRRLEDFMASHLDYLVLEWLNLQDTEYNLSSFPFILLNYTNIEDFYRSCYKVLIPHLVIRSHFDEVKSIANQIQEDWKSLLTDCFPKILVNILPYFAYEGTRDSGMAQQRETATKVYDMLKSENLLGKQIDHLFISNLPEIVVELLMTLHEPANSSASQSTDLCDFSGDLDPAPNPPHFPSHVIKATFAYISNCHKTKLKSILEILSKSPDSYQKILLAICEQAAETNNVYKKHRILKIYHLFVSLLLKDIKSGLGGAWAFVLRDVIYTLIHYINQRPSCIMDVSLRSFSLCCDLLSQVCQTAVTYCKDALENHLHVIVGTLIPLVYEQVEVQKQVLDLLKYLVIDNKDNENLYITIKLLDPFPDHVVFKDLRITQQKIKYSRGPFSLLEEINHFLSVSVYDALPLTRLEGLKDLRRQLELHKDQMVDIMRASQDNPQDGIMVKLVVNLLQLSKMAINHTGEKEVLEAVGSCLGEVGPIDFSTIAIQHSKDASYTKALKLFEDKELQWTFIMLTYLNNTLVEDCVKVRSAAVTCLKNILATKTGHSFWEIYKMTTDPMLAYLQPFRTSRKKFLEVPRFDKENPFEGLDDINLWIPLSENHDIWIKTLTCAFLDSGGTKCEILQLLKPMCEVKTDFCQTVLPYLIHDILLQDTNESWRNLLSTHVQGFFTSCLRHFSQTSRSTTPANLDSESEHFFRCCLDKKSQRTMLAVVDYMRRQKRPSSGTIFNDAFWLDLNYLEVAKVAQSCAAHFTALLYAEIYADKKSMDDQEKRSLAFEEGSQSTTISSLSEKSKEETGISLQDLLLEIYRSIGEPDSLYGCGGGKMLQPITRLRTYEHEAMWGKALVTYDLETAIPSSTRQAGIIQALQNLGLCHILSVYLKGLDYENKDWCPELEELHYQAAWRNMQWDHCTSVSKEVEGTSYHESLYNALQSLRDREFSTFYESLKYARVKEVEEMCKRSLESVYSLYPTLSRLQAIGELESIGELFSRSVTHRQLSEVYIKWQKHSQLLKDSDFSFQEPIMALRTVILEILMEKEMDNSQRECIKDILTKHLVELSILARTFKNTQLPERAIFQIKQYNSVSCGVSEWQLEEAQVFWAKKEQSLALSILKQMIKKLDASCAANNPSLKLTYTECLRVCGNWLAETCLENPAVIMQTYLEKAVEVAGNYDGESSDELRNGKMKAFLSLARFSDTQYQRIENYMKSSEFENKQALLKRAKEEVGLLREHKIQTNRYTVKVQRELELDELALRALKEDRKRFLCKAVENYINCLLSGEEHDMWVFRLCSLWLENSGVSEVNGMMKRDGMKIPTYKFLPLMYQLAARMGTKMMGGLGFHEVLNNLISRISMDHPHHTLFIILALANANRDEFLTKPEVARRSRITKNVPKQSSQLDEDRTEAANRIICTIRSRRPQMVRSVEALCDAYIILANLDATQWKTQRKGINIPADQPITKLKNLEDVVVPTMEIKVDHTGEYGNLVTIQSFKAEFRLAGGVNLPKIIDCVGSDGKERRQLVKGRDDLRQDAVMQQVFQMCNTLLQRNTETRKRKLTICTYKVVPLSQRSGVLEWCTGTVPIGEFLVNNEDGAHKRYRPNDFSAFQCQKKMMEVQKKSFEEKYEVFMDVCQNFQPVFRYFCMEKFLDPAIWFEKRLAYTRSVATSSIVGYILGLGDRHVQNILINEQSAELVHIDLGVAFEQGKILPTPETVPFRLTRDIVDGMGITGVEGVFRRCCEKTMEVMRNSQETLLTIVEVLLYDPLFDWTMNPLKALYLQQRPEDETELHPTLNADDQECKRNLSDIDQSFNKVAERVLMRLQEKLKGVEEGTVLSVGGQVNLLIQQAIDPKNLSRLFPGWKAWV
UniProt O43791: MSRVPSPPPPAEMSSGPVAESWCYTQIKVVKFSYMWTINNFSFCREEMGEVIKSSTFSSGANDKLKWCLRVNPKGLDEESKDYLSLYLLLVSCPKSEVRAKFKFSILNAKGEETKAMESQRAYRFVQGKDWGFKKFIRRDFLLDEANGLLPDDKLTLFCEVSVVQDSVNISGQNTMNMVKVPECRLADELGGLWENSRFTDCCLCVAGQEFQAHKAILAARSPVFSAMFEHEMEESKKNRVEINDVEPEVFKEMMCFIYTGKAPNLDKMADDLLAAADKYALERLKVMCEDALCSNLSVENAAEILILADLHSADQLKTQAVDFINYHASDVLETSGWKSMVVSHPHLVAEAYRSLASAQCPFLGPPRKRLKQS

What was measured:
[1] = target: Ataxia Telangiectasia Mutated (ATM), in cells (human (endogenous in PC-3)) (UniProt Q13315); experiment: proximity ligation; In Situ Proximity Ligation Assay in cells, foci after IR
HA-SPOP wild type = HA-SPOP wild type (UniProt O43791); experiment: co-IP; PC-3 cells transfected with vector, wild type or mutant HA-SPOP constructs, treated with 5Gy of IR; pull-down of HA, blots of MCM5 and MCM3

binding (HA-SPOP wild type) | Molecule | binding [1]
– | SPOP, wild-type form (proximity ligation assay) (from UniProt O43791 1-374) | binds
binds | MCM3 (protein, UniProt P25205 1-808) MAGTVVLDDVELREAQRDYLDFLDDEEDQGIYQSKVRELISDNQYRLIVNVNDLRRKNEKRANRLLNNAFEELVAFQRALKDFVASIDATYAKQYEEFYVGLEGSFGSKHVSPRTLTSCFLSCVVCVEGIVTKCSLVRPKVVRSVHYCPATKKTIERRYSDLTTLVAFPSSSVYPTKDEENNPLETEYGLSVYKDHQTITIQEMPEKAPAGQLPRSVDVILDDDLVDKAKPGDRVQVVGTYRCLPGKKGGYTSGTFRTVLIACNVKQMSKDAQPSFSAEDIAKIKKFSKTRSKDIFDQLAKSLAPSIHGHDYVKKAILCLLLGGVERDLENGSHIRGDINILLIGDPSVAKSQLLRYVLCTAPRAIPTTGRGSSGVGLTAAVTTDQETGERRLEAGAMVLADRGVVCIDEFDKMSDMDRTAIHEVMEQGRVTIAKAGIHARLNARCSVLAAANPVYGRYDQYKTPMENIGLQDSLLSRFDLLFIMLDQMDPEQDREISDHVLRMHRYRAPGEQDGDAMPLGSAVDILATDDPNFSQEDQQDTQIYEKHDNLLHGTKKKKEKMVSAAFMKKYIHVAKIIKPVLTQESATYIAEEYSRLRSQDSMSSDTARTSPVTARTLETLIRLATAHAKARMSKTVDLQDAEEAVELVQYAYFKKVLEKEKKRKKRSEDESETEDEEEKSQEDQEQKRKRRKTRQPDAKDGDSYDPYDFSDTEEEMPQVHTPKTADSQETKESQKVELSESRLKAFKVALLDVFREAHAQSIGMNRLTESINRDSEEPFSSVEIQAALSKMQDDNQVMVSEGIIFLI | –
binds | Mini Chromosome Maintenance 5 (MCM5) (protein, UniProt P33992 1-734) MSGFDDPGIFYSDSFGGDAQADEGQARKSQLQRRFKEFLRQYRVGTDRTGFTFKYRDELKRHYNLGEYWIEVEMEDLASFDEDLADYLYKQPAEHLQLLEEAAKEVADEVTRPRPSGEEVLQDIQVMLKSDASPSSIRSLKSDMMSHLVKIPGIIIAASAVRAKATRISIQCRSCRNTLTNIAMRPGLEGYALPRKCNTDQAGRPKCPLDPYFIMPDKCKCVDFQTLKLQELPDAVPHGEMPRHMQLYCDRYLCDKVVPGNRVTIMGIYSIKKFGLTTSRGRDRVGVGIRSSYIRVLGIQVDTDGSGRSFAGAVSPQEEEEFRRLAALPNVYEVISKSIAPSIFGGTDMKKAIACLLFGGSRKRLPDGLTRRGDINLLMLGDPGTAKSQLLKFVEKCSPIGVYTSGKGSSAAGLTASVMRDPSSRNFIMEGGAMVLADGGVVCIDEFDKMREDDRVAIHEAMEQQTISIAKAGITTTLNSRCSVLAAANSVFGRWDETKGEDNIDFMPTILSRFDMIFIVKDEHNEERDVMLAKHVITLHVSALTQTQAVEGEIDLAKLKKFIAYCRVKCGPRLSAEAAEKLKNRYIIMRSGARQHERDSDRRSSIPITVRQLEAIVRIAEALSKMKLQPFATEADVEEALRLFQVSTLDAALSGTLSGVEGFTSQEDQEMLSRIEKQLKRRFAIGSQVSEHSIIKDFTKQKYPEHAIHKVLQLMLRRGEIQHRMQRKVLYRLK | –
